Measurements published in patent US20150126603A1, “TREATMENT OF POULTRY, PIGS OR FISH FOR REDUCING THE FEED CONVERSION RATIO OR INCREASING THEIR BODYWEIGHT GAIN” (TAMINCO, priority 2012, published 2015).

Assays:
chickens = conditions: 22 mmol/kg bodyweight orally twice a day for five days; cited from earlier work
Ross 308 chickens = conditions: for Anserine / HCD (Histidine Containing Dipeptides) / Taurine / Carnosine: 500 mg/kg beta-alanine in diet; for Carnosine: 42 days of age

## NCCC(=O)O [Beta-alanine, β-alanine]
chickens
  anserine level: decreased
  carnosine concentrations in breast muscle and brains: increases
  dipeptide (carnosine and anserine) level: no significant increase
  reduction of taurine concentration in the breast muscles: more than 50%
Ross 308 chickens; 500 mg/kg β-alanine in diet
  effect on the muscular concentrations of carnosine, anserine and taurine: substantially no effect
Ross 308 chickens; breast muscle
  Anserine: 36.9 mmol/kg
  HCD (Histidine Containing Dipeptides): 44.8 mmol/kg
  Taurine: 2.2 mmol/kg
  Carnosine: 7.9 mmol/kg
Ross 308 chickens; thigh muscle
  Anserine: 12.6 mmol/kg
  HCD (Histidine Containing Dipeptides): 17.4 mmol/kg
  Taurine: 5.6 mmol/kg
  Carnosine: 4.8 mmol/kg

Read-outs that look alike come from different tables or passages of the source.
